# Reference: PubChem BioAssay AID2685 (National Center for Advancing Translational Sciences (NCATS), 2010)
# The other results are listed elsewhere or left out. Shown are side measurements of this screen, not its main read-out; they come without a call. Compounds called inactive in the main read-out are mostly missing here. Potencies come from curve fits of mixed quality, noted in brackets.
# Experiment: qHTS Assay for Lipid Storage Modulators in Drosophila S3 Cells;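 as to cell number change: cells counted by Cell Tracker Red CMTPX staining in the red channel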
# Conditions: BODIPY lipid droplet fluorescence, 18-24 h; for cell number change: measured here: cell count max response, cells fed with added oleic acid
# Procedure, shortened: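 Laser-scanning cytometry quantifies lipid droplet accumulation (500–530 nm total intensity; droplet/cell object ratio) in oleic acid-fed (400 uM added) Drosophila S3 cells treated with a concentration series. 20 uM Triacsin C defined 100% inhibition.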
# [1] = measured here: lipid fluorescence (Fed channel) AC50, cells fed with added oleic acid
# [2] = measured here: cell number channel AC50, cells fed with added oleic acid
Compound,cell number change [%],AC50 [1],AC50 [2]
CCc1ccccc1NCc1cc(=O)oc2cc(C)ccc12,30.4,,
Cc1ccc(NC(=O)[C@H](Cc2ccccc2)NC(=O)[C@@H]2Cc3ccccc3CN2)c(C)c1,18,"6.51 µM [falling, single point]",
O=C(Nc1cccc2nsnc12)c1ccc(F)cc1,6.21,,"6.51 µM [rising, single point]"
COc1cccc(-n2c(SCC(N)=O)nc3c([nH]c4ccccc43)c2=O)c1,10.7,"2.91 µM [rising, full curve]",
CCOCc1cc(CN2CCC(CCC(=O)NC3CC3)CC2)ccc1OC,14.8,"29.1 µM [rising, single point]",
COc1ccc(NC(=O)CN(C)C(=O)c2cccc(NS(=O)(=O)c3ccc(Br)cc3)c2)cc1,,,"0.13 µM [falling, full curve, poor fit]"
CCCCOC(=O)Nc1ccc(C(N)=O)cc1,46.5,,"20.6 µM [rising, single point]"
COc1ccc(-c2nnn(CC(=O)N(CCCN3CCOCC3)C(C(=O)NC3CCCC3)c3ccco3)n2)cc1 (stereo not drawn),11.1,,
COc1ccc2[nH]c3c(=O)n(CCCN4CCOCC4)cnc3c2c1,7.84,,
CCCc1cc(=O)oc2cc(OCC(=O)NC(Cc3c[nH]c4ccc(O)cc34)C(=O)O)c(Cl)cc12 (stereo not drawn),8.72,,
Cc1ccc(-c2ccc(=O)n(Cc3c(F)cccc3Cl)n2)cc1,,,"0.092 µM [rising, full curve, poor fit]"
O=C(COc1ccccc1F)NNC(=O)Cc1ccc(S(=O)(=O)N2CCOCC2)s1,3.23,"0.58 µM [rising, single point]",
Cc1ccc(C2C(C#N)=C(N)Oc3n[nH]c(C)c32)cc1 (stereo not drawn),-6.34,,
CCS(=O)(=O)CCSc1nc(C)cc(C)n1,1.87,,
COc1cccc(NC2=NCCCCC2)c1,8.33,,
CCOc1ccc(/C=C(\C#N)C(=O)NCC2CCCO2)cc1OCC (stereo not drawn),1.5,"6.51 µM [rising, single point]",
CC1=C(C#N)CCC(=O)N1Cc1c(C)cc(C)cc1C,11.2,,
CCC(C)NC(=O)/C=C/c1cccs1 (stereo not drawn),-23.7,,"2.31 µM [falling, full curve, poor fit]"
Cn1c(=O)c2[nH]c(SCC(=O)c3ccc(F)cc3)nc2n(C)c1=O,-28.5,,
COc1ccc2[nH]c(=O)c(CN(Cc3cccs3)C(=S)NCC3CCCO3)cc2c1 (stereo not drawn),6,"0.291 µM [rising, full curve, poor fit]",
Cc1cc(N2CCCc3ccccc32)n2ncnc2n1,21.5,,
O=C(Cn1nc(C(=O)O)c2ccccc2c1=O)Nc1cc(Cl)cc(Cl)c1,-6.85,"20.6 µM [falling, single point]",

Compound,cell number change [%],AC50 [1],AC50 [2]
Cc1ccc(C(=O)N2CCN(c3ccccn3)CC2)cc1,,"2.31 µM [rising, partial curve]","0.092 µM [rising, partial curve, poor fit]"
Cc1ccc(NC(=O)c2ccc(C)c(S(=O)(=O)N3CCOCC3)c2)nc1,-11.5,"1.03 µM [falling, partial curve]",
O=C(CCNS(=O)(=O)c1ccccc1)OCC(=O)c1ccc(Br)cc1,-18.5,,
O=C(O)CCC(=O)Nc1ccccc1C(=O)NCc1ccccc1,-50,,"29.1 µM [falling, single point]"
CN(C)c1ccc(/C=C/C(=O)c2c(O)c3ccccc3oc2=O)cc1,-1.28,,
CC(=O)c1c(C)nc2ccc(C)cc2c1-c1ccccc1,-3.7,"6.51 µM [falling, single point]",
O=C(N/C(=C\c1ccc2c(c1)OCO2)C(=O)N1CCOCC1)c1ccccc1Br,14.1,"0.651 µM [rising, single point]",
CCOc1ccc(S(=O)(=O)N2c3ccccc3CC2C)cc1 (stereo not drawn),-11,,
COc1ccc(C(CC(=O)NCc2ccccc2)Sc2n[nH]c(-c3ccc(Cl)cc3)n2)cc1 (stereo not drawn),-36.4,"29.1 µM [falling, single point]","1.3 µM [falling, full curve]"
CCOc1ccc(C(=O)Nc2ccc(-c3cc4ccccc4oc3=O)c(C)c2)cc1[N+](=O)[O-],11.1,"10.3 µM [rising, partial curve, poor fit]",
CCN(CC)c1ccc(C(=O)NC(=S)N2CCN(Cc3ccc4c(c3)OCO4)CC2)cc1,12.5,"23.1 µM [rising, partial curve, poor fit]",
CCOC(=O)c1nn(-c2ccc(Cl)cc2)c(=O)c(C#N)c1C,9.38,"2.06 µM [rising, partial curve]",
O=C(Cc1ccc(Cl)cc1)N1CCOCC1,18.9,"6.51 µM [falling, partial curve, poor fit]",
CCOC(=O)Cc1csc(NC(=S)NC(=O)CC(C)C)n1,-0.334,"3.26 µM [falling, partial curve]","1.03 µM [falling, partial curve]"
Cn1nnnc1Sc1ncnc2scc(-c3ccc(C(F)(F)F)cc3)c12,-11.1,"0.146 µM [falling, single point]",
COC(=O)c1cn(C)c2ccc(S(=O)(=O)N3CCCCC3)cc2c1=O,151,"29.1 µM [rising, single point]","29.1 µM [rising, single point]"
CCCCCCC1CCC(c2nc(-c3ccncc3)no2)CC1 (stereo not drawn),-11.7,"6.51 µM [falling, single point]","6.51 µM [falling, single point]"
COc1ccc(CCNC(=O)Cn2nc(C(=O)O)c3ccccc3c2=O)cc1OC,-52.9,"0.0326 µM [falling, full curve]","29.1 µM [falling, partial curve, poor fit]"
CCc1ccc(OCC(=O)Nc2nnc(C3CCCC3)s2)cc1,1.18,"1.64 µM [rising, partial curve]",
CC(C)CN(C(=O)CCC(=O)OCc1ccc(Cl)cc1Cl)c1c(N)n(CC(C)C)c(=O)[nH]c1=O,-37.9,"0.58 µM [falling, single point]","29.1 µM [falling, single point]"
Cc1ccc(S(=O)(=O)c2ccc(NN)cc2)cc1,,"4.61 µM [falling, partial curve, poor fit]",
O=C(CC1C(=O)NCCN1C(=O)c1ccc([N+](=O)[O-])cc1)Nc1cccc(Cl)c1 (stereo not drawn),21.4,,

# Given bar-delimited: 14 of the compounds above
Compound | cell number change [%] | AC50 [1] | AC50 [2]
CC1=C(C#N)CCC(=O)N1Cc1c(C)cc(C)cc1C | 11.2 |  | 
CCC(C)NC(=O)/C=C/c1cccs1 (stereo not drawn) | -23.7 |  | 2.31 µM [falling, full curve, poor fit]
Cn1c(=O)c2[nH]c(SCC(=O)c3ccc(F)cc3)nc2n(C)c1=O | -28.5 |  | 
COc1ccc2[nH]c(=O)c(CN(Cc3cccs3)C(=S)NCC3CCCO3)cc2c1 (stereo not drawn) | 6 | 0.291 µM [rising, full curve, poor fit] | 
Cc1cc(N2CCCc3ccccc32)n2ncnc2n1 | 21.5 |  | 
O=C(Cn1nc(C(=O)O)c2ccccc2c1=O)Nc1cc(Cl)cc(Cl)c1 | -6.85 | 20.6 µM [falling, single point] | 
Cc1ccc(C(=O)N2CCN(c3ccccn3)CC2)cc1 |  | 2.31 µM [rising, partial curve] | 0.092 µM [rising, partial curve, poor fit]
Cc1ccc(NC(=O)c2ccc(C)c(S(=O)(=O)N3CCOCC3)c2)nc1 | -11.5 | 1.03 µM [falling, partial curve] | 
O=C(CCNS(=O)(=O)c1ccccc1)OCC(=O)c1ccc(Br)cc1 | -18.5 |  | 
O=C(O)CCC(=O)Nc1ccccc1C(=O)NCc1ccccc1 | -50 |  | 29.1 µM [falling, single point]
CN(C)c1ccc(/C=C/C(=O)c2c(O)c3ccccc3oc2=O)cc1 | -1.28 |  | 
CC(=O)c1c(C)nc2ccc(C)cc2c1-c1ccccc1 | -3.7 | 6.51 µM [falling, single point] | 
O=C(N/C(=C\c1ccc2c(c1)OCO2)C(=O)N1CCOCC1)c1ccccc1Br | 14.1 | 0.651 µM [rising, single point] | 
CCOc1ccc(S(=O)(=O)N2c3ccccc3CC2C)cc1 (stereo not drawn) | -11 |  | 

# The results go on:

Compound,cell number change [%],AC50 [1],AC50 [2]
CCOCCn1c(-c2ccccc2)nc2ccccc21,12.3,"18.4 µM [rising, single point]",
CCOC(=O)C1CCN(Cc2nc3ccccc3c(=O)n2-c2ccc(OCC)cc2)CC1,-17.7,"23.1 µM [falling, partial curve]",
CC(=O)c1ccc(NC(=O)CSc2nc(N)c3cc4c(nc3n2)CCCC4)cc1,-39.5,"23.1 µM [falling, single point]","20.6 µM [falling, single point]"
COCCNC(=O)c1ccc(C(=O)NCCOC)s1,-13.9,"20.6 µM [falling, partial curve]","6.51 µM [falling, single point]"
c1ccc(Cc2nn[nH]n2)cc1,-0.13,,
Cc1ccc(S(=O)(=O)N2CCCN(C(=O)OC(C)(C)C)CC2)cc1,15.2,"6.51 µM [rising, single point]",
COC(=O)COc1ccc(Oc2nc(SC)nc(N(C)C)n2)nn1,0.801,"29.1 µM [rising, single point]",
COc1ccc(Oc2coc3cc(OC(=O)/C=C/c4ccc(F)cc4)ccc3c2=O)cc1,-28.2,"11.6 µM [falling, single point]",
Cc1cc(=O)oc2cc(NC(=O)C3COc4ccccc4O3)ccc12 (stereo not drawn),-67.9,"20.6 µM [falling, single point]","23.1 µM [falling, partial curve, poor fit]"
CC(Sc1nncs1)C(=O)Nc1ccc(Cl)cn1 (stereo not drawn),-18.3,"0.58 µM [rising, single point]","0.461 µM [rising, single point]"
CN(CC(=O)NCc1ccc(F)cc1)Cc1cccc(Cl)c1,-9.52,,
CC(C)NS(=O)(=O)c1ccc(OCC(=O)N2CCc3ccccc3C2)cc1,-14.3,"25.9 µM [falling, single point]",
Cc1cc(Cl)ccc1OCCCC(=O)Nc1cccnc1,-20.6,"0.411 µM [rising, full curve]",
Cc1nnc(SCCn2c(N3CC(C)CC(C)C3)nc3c2c(=O)n(C)c(=O)n3C)s1 (stereo not drawn),-21.5,"0.366 µM [falling, full curve, poor fit]",
O=c1cc(-c2ccccc2)cc(-c2ccccc2)n1O,29,"9.2 µM [rising, partial curve]",
CC(=O)c1ccc(OCCn2cnc3ccccc32)cc1,1.26,"9.2 µM [rising, partial curve]",
CC(C)NC(=O)c1sc2nc(-c3cccs3)cc(-c3cccs3)c2c1N,9,"0.651 µM [rising, full curve]","0.82 µM [rising, full curve]"
Cc1ccc(NC(=O)CCc2nnc3ccc(NCc4ccco4)nn23)nc1,-7.34,"25.9 µM [falling, partial curve, poor fit]",
C(=N\Nc1nc2ccccc2s1)/c1cccs1,-19.7,,
COCCCN1CC(=O)N2C(c3ccc(OC)c(OC)c3)c3[nH]c4ccccc4c3C[C@H]2C1=O (stereo partly drawn),,"0.0366 µM [rising, full curve, poor fit]",
